Values from PubChem BioAssay AID720505 (Drosophila RNAi Screening Center, 2013)
Aim: 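Genes needed for store-operated calcium entry in fly cells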 (primary screen). Cells: Drosophila S2R+ cells. Knock-down reagent: long dsRNA against Drosophila genes. Conditions: thapsigargin (2 µM) in calcium-free buffer to empty internal stores, then 2 mM calcium added back. Measurement: 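Stores emptied by 2 µM thapsigargin without calcium, then 2 mM calcium re-added; fluo-4 fluorescence followed by FLIPR in 384-well plates, per-well averaged endpoint, raw; two screen passes, some wells retested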. Reading the numbers: calcium signal and retest calcium signal: higher = more calcium entry after store depletion. Active means: 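Knock-downs counted as hits when calcium entry dropped relative to STIM1 positive and Rho1 negative controls present on each plate; roughly 1500 genes called, with reductions of differing size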. Calls: active = called as lowering calcium entry; inactive = not called.
In all, the deposit lists about 20,000 reagents; below is a random part of those with a known target gene and a result. Of all reagents, about 2,100 (10%) got an active call. 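Raw plate signals without normalisation; calls rest on control-based scores that were not deposited; replicate 2 separates called from uncalled poorly.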 Not given: the amount of reagent, the time to read-out.

target	amplicon	calcium signal, replicate 1	calcium signal, replicate 2	retest calcium signal, replicate 1	retest calcium signal, replicate 2	Outcome
dhd	DRSC18761	128	68.2			inactive
CG43271	DRSC01614	185	117	6021	77.3	inactive
CG43271	DRSC21741	158	112			inactive
CG13810	DRSC08344	67.4	119			inactive
CG13810	DRSC22838	114	90.3			inactive
Pepck1	DRSC07505	160	168			inactive
Dso1	DRSC21815	165	96.6			inactive
CG30158	DRSC04956	67.8	81.7			active
CG30158	DRSC04974	100	94.3			inactive
CG30158	DRSC04975	75.8	79.2			inactive
CG30158	DRSC05012	76.1	80.7			inactive
hebe	DRSC05192	115	143			inactive
hebe	DRSC06605	199	210	79.2	125	inactive
hebe	DRSC21614	128	101			inactive
crb	DRSC16927	144	278			inactive
CG30083	DRSC05572	89.9	144			inactive
CG34425	DRSC12210	105	155			inactive
CG34425	DRSC22315	68.2	218			inactive
Alp8	DRSC04353	41.7	181			inactive
Spt5	DRSC07556	93.2	116			active
CG14297	DRSC14776	53.6	121			active
Calr	DRSC16614	131	91.3			inactive
mRpL39	DRSC10255	124	141			inactive
uri	DRSC04111	195	90.9			inactive
MtnA	DRSC21588	127	77.6			inactive
CG14257	DRSC14752	162	156			inactive
CG42390	DRSC15866	165	180			inactive
CG42390	DRSC23064	113	181			inactive
CG42390	DRSC23065	101	97.6			inactive

3 entries from above, ordered by “calcium signal, replicate 2”, descending.
target	amplicon	calcium signal, replicate 1	calcium signal, replicate 2	retest calcium signal, replicate 1	retest calcium signal, replicate 2	Outcome
Dso1	DRSC21815	165	96.6			inactive
CG30158	DRSC04974	100	94.3			inactive
CG30158	DRSC04956	67.8	81.7			active

Continued.
target	amplicon	calcium signal, replicate 1	calcium signal, replicate 2	retest calcium signal, replicate 1	retest calcium signal, replicate 2	Outcome
Gyg	DRSC03850	76.1	7240			inactive
Gyg	DRSC04556	63	121			active
Syt12	DRSC19359	119	100			inactive
bol	DRSC10444	102	90.7			inactive
bol	DRSC11329	88.8	89.1			inactive
CG14273	DRSC02377	171	174			inactive
CG1143	DRSC08188	102	149			inactive
EndoA	DRSC14775	104	204			inactive
CG14499	DRSC06470	99.3	139			active
CG9356	DRSC16476	135	96.5			inactive
CG32379	DRSC10318	97.9	66.9			inactive
B9d1	DRSC14993	129	110			inactive
Pal1	DRSC06106	214	215			inactive
CG43896	DRSC10288	93.6	109			inactive
CG43896	DRSC10754	115	118			inactive
Gug	DRSC11179	85.8	79.5			inactive
GstE9	DRSC06679	192	175			inactive
Trpm	DRSC06629	107	115			inactive
Trpm	DRSC21566	135	69.9			inactive
capt	DRSC00676	219	144			inactive
capt	DRSC00806	229	134			inactive
Cpr12A	DRSC19722	102	85.6			inactive
Aptx	DRSC15768	230	190			inactive
mus101	DRSC19388	76.4	85.9			active
CG31697	DRSC22273	110	151			inactive
Tbc1d15-17	DRSC00313	102	190			inactive
prod	DRSC07667	101	138			inactive
